Assay results: the supplement of paper PMC6331611
Values joined by “and” are separate entries in the source; they are usually repeats but may differ in a detail not shown here. Equal entries are not always repeated. ± gives the standard deviation of the averaged measurements. The full ranking holds about 1,600 compounds; the median of “normalized growth (OD600, IQM-normalized) in LPM” is about 1, and the lowest 2% start at about 0.014. The list shows a part of the results.

test system: Salmonella enterica serovar Typhimurium SL1344; experiment: normalized growth (OD600, IQM-normalized) in LPM (fraction of plate interquartile mean); higher = more bacterial growth (less inhibition); details: LPM pH 5.8; 10 µM; 16 h

SMILES | normalized growth
O=C1CC[C@@H](C(=O)O)N1 | 0.932 ± 0.063
C#C[C@]1(O)CC[C@H]2[C@@H]3CCC4=CC(=O)CC[C@@H]4[C@H]3CC[C@@]21C | 0.98 ± 0.023
CO[C@@]1(NC(=O)C(C(=O)O)c2ccc(O)cc2)C(=O)N2C(C(=O)O)=C(CSc3nnnn3C)CO[C@@H]21 (stereo partly drawn) | 0.993 ± 0.045
Nc1ccc(S(=O)(=O)Nc2ncccn2)cc1 | 0.991 ± 0.018
C#C[C@]1(OC(C)=O)CC[C@H]2[C@@H]3CCC4=C[C@@H](OC(C)=O)CC[C@@H]4[C@H]3CC[C@@]21C | 0.991 ± 0.05
CO[C@H]1/C=C/O[C@@]2(C)Oc3c(C)c(O)c4c(O)c(c(/C=N/N5CCN(C)CC5)c(O)c4c3C2=O)NC(=O)/C(C)=C\C=C\[C@H](C)[C@H](O)[C@@H](C)[C@@H](O)[C@@H](C)[C@H](OC(C)=O)[C@@H]1C | 0.0102 ± 0.00021
CCCSc1ccc2[nH]c(NC(=O)OC)nc2c1 | 0.989 ± 0.017
Cc1c(Cl)cccc1Nc1ccccc1C(=O)O | 1.05 ± 0.089
O=C(O)c1ccccc1-c1c2cc(I)c(=O)c(I)c-2oc2c(I)c(O)c(I)cc12 | 1.18 ± 0.065
CCc1ccc(CCOc2ccc(CC3SC(=O)NC3=O)cc2)nc1 (stereo not drawn) | 1.09 ± 0.067
Cc1ccc(N(CC2=NCCN2)c2cccc(O)c2)cc1 | 1.01 ± 0.042
O=C1c2c(O)cc(CO)cc2C(OC2OC(CO)C(O)C(O)C2O)c2cccc(OC3OC(CO)C(O)C(O)C3O)c21 (stereo not drawn) [CASANTHRANOL [cascaroside A shown]] | 1.02 ± 0.031
O=C(O)CCc1nc(-c2ccccc2)c(-c2ccccc2)o1 | 1.03 ± 0.06
Clc1ccc2c(c1)C(N1CCNCC1)=Nc1ccccc1O2 | 0.9645 ± 0.0095
O=C1c2ccccc2C(=O)C1c1ccccc1 | 0.916 ± 0.019
OCCN1CCN(CCCN2c3ccccc3Sc3ccc(C(F)(F)F)cc32)CC1 | 1.06 ± 0.12
CC(C)(Oc1ccc(CCNC(=O)c2ccc(Cl)cc2)cc1)C(=O)O | 0.915 ± 0.045
c1ccc(CC2=NCCN2)cc1 | 1.13 ± 0.044
CC1=C(/C=C/C(C)=C/C=C/C(C)=C/C=C/C=C(C)/C=C/C=C(C)/C=C/C2=C(C)CCCC2(C)C)C(C)(C)CCC1 [beta-CAROTENE] | 0.996 ± 0.032
CC[C@H]1OC(=O)[C@H](C)[C@@H](O[C@H]2C[C@@](C)(OC)[C@@H](O)[C@H](C)O2)[C@H](C)[C@@H](O[C@@H]2O[C@H](C)C[C@H](N(C)C)[C@H]2O)[C@](C)(O)C[C@@H](C)C(=O)[C@H](C)[C@@H](O)[C@]1(C)O | 0.94 and 1.2
CC(C(=O)O)c1ccc(CC2CCCC2=O)cc1 (stereo not drawn) | 0.977 ± 0.023
Nc1nc(F)nc2c1ncn2[C@@H]1O[C@H](COP(=O)(O)O)[C@@H](O)[C@@H]1O | 1.08 ± 0.041
CCOC(=O)N1CCC(=C2c3ccc(Cl)cc3CCc3cccnc32)CC1 | 0.985 ± 0.019

Rewritten as tab-separated lines: two of the compounds above.
SMILES	normalized growth
CO[C@H]1/C=C/O[C@@]2(C)Oc3c(C)c(O)c4c(O)c(c(/C=N/N5CCN(C)CC5)c(O)c4c3C2=O)NC(=O)/C(C)=C\C=C\[C@H](C)[C@H](O)[C@@H](C)[C@@H](O)[C@@H](C)[C@H](OC(C)=O)[C@@H]1C	0.0102 ± 0.00021
O=C1c2c(O)cc(CO)cc2C(OC2OC(CO)C(O)C(O)C2O)c2cccc(OC3OC(CO)C(O)C(O)C3O)c21 (stereo not drawn) [CASANTHRANOL [cascaroside A shown]]	1.02 ± 0.031
